Data as given in PubChem BioAssay AID504791 (Drosophila RNAi Screening Center, 2011)
In all, the deposit lists about 23,000 reagents; this is a random part of those that have a named target and a result. In the full data, 199 (0.86%) were called active. 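Plate-scaled ratios behind the calls are not deposited; printed light signals are raw; many rows marked increased or decreased are still called inactive.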 The record does not give: the direction of the score.

Purpose: 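Factors in Argonaute-based small RNA production and activity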 (primary screen)
Cells: Drosophila S2-derived reporter cells
Reagent: long dsRNA against Drosophila genes, about 150-250 ng dsRNA per well (siRNA assay); about 80-120 ng (miRNA assay)
Duration: about 5 days (siRNA assay); about 4 days (miRNA assay)
Challenge: copper sulfate induction of reporters: 25 µM (siRNA assay); 200 mM stated (miRNA assay), 1-2 days before reading
Detection: 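Dual luciferase assay: Renilla to firefly signal ratio in each well, scaled to the mean ratio of its plate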
Units: stable assay Renilla, run 1 in luminescence; stable assay firefly, run 1 in luminescence
Active means: 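First-pass picks had plate-scaled ratios over 1.5 for the siRNA assay, over 1.6 for the miRNA assay, or under 0.6; two distinct dsRNAs had to score alike on retest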

| target gene | amplicon | miRNA reporter change | stable assay Renilla, run 1 | stable assay firefly, run 1 | call |
| --- | --- | --- | --- | --- | --- |
| CG8032 | DRSC16365 | – | 7212 | 4.78e5 | inactive |
| CG34155 | DRSC13991 | – | 7981 | 3.48e5 | inactive |
| CG11369 | DRSC17779 | – | 5699 | 3.15e5 | inactive |
| CG10979 | DRSC12153 | – | 6518 | 4.18e5 | inactive |
| Cypl | DRSC08362 | – | 6211 | 3.04e5 | inactive |
| qjt | DRSC10060 | – | 6878 | 3.56e5 | inactive |
| Gr93c | DRSC14587 | – | 7289 | 3.79e5 | inactive |
| rtet | DRSC14160 | – | 8060 | 3.01e5 | inactive |
| Mtpalpha | DRSC01994 | – | 6535 | 4.60e5 | inactive |
| Prosbeta2R1 | DRSC18154 | – | 4436 | 2.70e5 | inactive |
| nompB | DRSC03701 | – | 6955 | 5.21e5 | inactive |
| nompB | DRSC03731 | – | 3472 | 3.88e5 | inactive |
| Scp2 | DRSC13166 | – | 3891 | 3.78e5 | inactive |
| Scp2 | DRSC16854 | – | 7855 | 3.87e5 | inactive |
| CG15728 | DRSC19694 | – | 5199 | 4.56e5 | inactive |
| CG15728 | DRSC22868 | – | 5602 | 5.06e5 | inactive |
| CG6959 | DRSC16151 | – | 6398 | 3.80e5 | inactive |
| lncRNA:CR32661 | DRSC19794 | – | 4690 | 3.41e5 | inactive |
| CG14325 | DRSC14804 | – | 7917 | 4.15e5 | inactive |
| Wdr92 | DRSC10187 | – | 7306 | 3.17e5 | inactive |
| CG44325 | DRSC18423 | – | 5799 | 4.02e5 | inactive |
| CG30355 | DRSC21958 | – | 9317 | 6.50e5 | inactive |
| CG8708 | DRSC07240 | – | 9287 | 5.72e5 | inactive |
| CG14183 | DRSC10182 | – | 8164 | 3.63e5 | inactive |
| CG42703 | DRSC03973 | – | 4131 | 3.79e5 | inactive |
| Nazo | DRSC14343 | – | 6083 | 4.39e5 | inactive |
| CG8289 | DRSC20101 | – | 8566 | 3.78e5 | inactive |
| CG8289 | DRSC25677 | reporter ratio raised past the hit cutoff | – | – | inactive |
| Pask | DRSC04337 | – | 15887 | 1.06e6 | inactive |
| Gcn2 | DRSC16678 | – | 8403 | 4.64e5 | inactive |
| Pgk | DRSC00769 | – | 7388 | 3.58e5 | inactive |
| Pgk | DRSC23340 | – | 4607 | 2.67e5 | inactive |
| AspRS | DRSC05914 | – | 7662 | 3.61e5 | inactive |
| Dmtn | DRSC12513 | – | 7858 | 4.73e5 | inactive |
| Dhc64C | DRSC08656 | – | 8552 | 3.72e5 | inactive |
| kirre | DRSC18785 | – | 7250 | 3.87e5 | inactive |
| pita | DRSC04006 | – | 4875 | 4.27e5 | inactive |
| pita | DRSC04435 | – | 1.26e5 | 2.29e5 | inactive |
| CG1632 | DRSC17558 | – | 4898 | 3.80e5 | inactive |
| CG1632 | DRSC18110 | – | 5704 | 3.72e5 | inactive |
| Gr64c | DRSC08445 | – | 6451 | 3.69e5 | inactive |
| Rsph4a | DRSC04338 | – | 8746 | 1.67e6 | inactive |
| Rbfox1 | DRSC09034 | – | 4011 | 3.74e5 | inactive |
| Rbfox1 | DRSC10157 | – | 2871 | 1.88e5 | inactive |
| Rbfox1 | DRSC10320 | – | 5532 | 3.14e5 | inactive |
| Rbfox1 | DRSC21378 | – | 9333 | 6.97e5 | inactive |
| Rbfox1 | DRSC22992 | – | 6538 | 5.38e5 | inactive |
| CG6337 | DRSC06977 | – | 5791 | 3.35e5 | inactive |
| CG6337 | DRSC21870 | – | 9547 | 6.78e5 | inactive |
| mtSSB | DRSC17005 | – | 7307 | 4.33e5 | inactive |
| Mkp3 | DRSC10084 | – | 10316 | 3.87e5 | inactive |
| Mkp3 | DRSC10085 | – | 7802 | 4.73e5 | inactive |
| unc-104 | DRSC07710 | – | 6118 | 3.15e5 | inactive |
| CG8132 | DRSC16383 | – | 6799 | 3.32e5 | inactive |
| Atg9 | DRSC06848 | – | 8966 | 3.28e5 | inactive |
| CG5928 | DRSC18391 | – | 5331 | 4.66e5 | inactive |
| CG5861 | DRSC02907 | – | 9481 | 4.89e5 | inactive |
| CG1888 | DRSC06797 | – | 6226 | 3.46e5 | inactive |
| Karl | DRSC19883 | – | 8711 | 5.41e5 | inactive |
| CG12126 | DRSC06103 | – | 8115 | 6.53e5 | inactive |
| Shab | DRSC08013 | – | 6074 | 3.48e5 | inactive |
| Shab | DRSC08643 | – | 6343 | 3.44e5 | inactive |
| Shab | DRSC08699 | – | 14098 | 4.70e5 | inactive |
| ppk18 | DRSC02216 | – | 6799 | 3.70e5 | inactive |
| Pen | DRSC03396 | – | 8695 | 1.34e6 | inactive |
| Semp1 | DRSC01874 | – | 8682 | 4.88e5 | inactive |
| CG13455 | DRSC10002 | – | 6820 | 3.41e5 | inactive |
| CG2258 | DRSC18222 | – | 7035 | 4.45e5 | inactive |
| Jon65Aiii | DRSC10649 | – | 7548 | 5.23e5 | inactive |
| PolE2 | DRSC09737 | – | 6895 | 5.20e5 | inactive |
| beat-IIIb | DRSC02435 | – | 7670 | 4.90e5 | inactive |
| CG14306 (retired record) | DRSC14785 | – | 7406 | 3.43e5 | inactive |
| CG8545 | DRSC07210 | – | 6283 | 4.61e5 | inactive |
| ken | DRSC04696 | reporter ratio lowered past the hit cutoff | 12051 | 6.79e5 | inactive |
| ken | DRSC23196 | – | 4487 | 3.94e5 | inactive |
| Sec24AB | DRSC06478 | – | 8494 | 4.23e5 | inactive |
| CG3770 | DRSC04416 | – | 55232 | 8.40e5 | inactive |
| CG10151 | DRSC05974 | – | 7350 | 3.71e5 | inactive |
| Nmdmc | DRSC16760 | – | 9757 | 5.20e5 | inactive |
| CG13438 | DRSC06398 | – | 6270 | 3.73e5 | inactive |
| CG14420 | DRSC17917 | – | 6930 | 4.18e5 | inactive |
| Reph | DRSC00634 | – | 2.65e5 | 1.04e5 | inactive |
| Reph | DRSC22031 | – | 9757 | 6.60e5 | inactive |

No new results follow: entries from further up.
| target gene | amplicon | miRNA reporter change | stable assay Renilla, run 1 | stable assay firefly, run 1 | call |
| --- | --- | --- | --- | --- | --- |
| Cypl | DRSC08362 | – | 6211 | 3.04e5 | inactive |
| qjt | DRSC10060 | – | 6878 | 3.56e5 | inactive |
| Gr93c | DRSC14587 | – | 7289 | 3.79e5 | inactive |
| rtet | DRSC14160 | – | 8060 | 3.01e5 | inactive |
| Mtpalpha | DRSC01994 | – | 6535 | 4.60e5 | inactive |
| Prosbeta2R1 | DRSC18154 | – | 4436 | 2.70e5 | inactive |
| nompB | DRSC03701 | – | 6955 | 5.21e5 | inactive |
| nompB | DRSC03731 | – | 3472 | 3.88e5 | inactive |
| Scp2 | DRSC13166 | – | 3891 | 3.78e5 | inactive |
| Scp2 | DRSC16854 | – | 7855 | 3.87e5 | inactive |
